Measured values as given in paper PMC2667185.
These are yes or no findings as the source states them, for the method shown. Some entries that bind do so weakly or less than the wild type.

How the values were obtained:
[1] = molecular target: T1, Mus musculus RAD51C full length (Mus musculus) (UniProt Q924H5); test: two-hybrid; same mated yeast; colony lift assay, qualitative β-galactosidase activity
T1 sequence: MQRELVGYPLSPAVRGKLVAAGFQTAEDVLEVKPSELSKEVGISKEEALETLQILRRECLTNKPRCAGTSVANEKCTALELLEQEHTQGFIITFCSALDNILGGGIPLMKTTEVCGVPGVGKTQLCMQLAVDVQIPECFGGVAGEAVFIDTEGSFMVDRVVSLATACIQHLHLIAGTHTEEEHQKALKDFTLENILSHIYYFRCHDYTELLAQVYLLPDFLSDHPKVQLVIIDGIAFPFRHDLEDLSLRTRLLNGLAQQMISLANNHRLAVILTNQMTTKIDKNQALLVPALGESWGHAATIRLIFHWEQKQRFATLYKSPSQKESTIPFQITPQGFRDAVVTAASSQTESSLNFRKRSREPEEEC

[2] = molecular target: T2, Mus musculus XRCC2 full length (Mus musculus) (UniProt Q9CX47); test: as above
T2 sequence: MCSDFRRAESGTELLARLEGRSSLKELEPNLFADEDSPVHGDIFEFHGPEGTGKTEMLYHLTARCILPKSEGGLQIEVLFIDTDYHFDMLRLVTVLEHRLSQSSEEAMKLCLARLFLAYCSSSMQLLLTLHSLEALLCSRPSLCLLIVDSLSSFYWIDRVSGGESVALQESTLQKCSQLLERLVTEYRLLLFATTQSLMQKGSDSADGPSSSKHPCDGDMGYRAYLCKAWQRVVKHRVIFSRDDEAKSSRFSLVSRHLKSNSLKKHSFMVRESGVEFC

[3] = molecular target: T1, Mus musculus RAD51C full length (Mus musculus); test: two-hybrid; same mated yeast; liquid β-galactosidase assay with ONPG as substrate, in triplicate, constructs in both the GAL4 activating and DNA binding domains
[4] = molecular target: T2, Mus musculus XRCC2 full length (Mus musculus); test: as above
[5] = molecular target: T1, Mus musculus RAD51C full length (Mus musculus); test: two-hybrid; GAL4 activating domain (pGADT7) and DNA binding domain (pGBKT7) fusions, AH109 x Y187 diploids; growth on -Ade/-Leu/-His/-Trp medium, 10 days at 30°C; both orientations of the GAL4 fusion
[6] = molecular target: T2, Mus musculus XRCC2 full length (Mus musculus); test: as above
[7] = molecular target: T2, Mus musculus XRCC2 full length (Mus musculus); test: two-hybrid; RAD51DΔ3 and RAD51D+int3 directly compared with the original RAD51D deletion constructs (4–77, 77–329) against RAD51C and XRCC2 (Figure 3A-B); read-out not stated

Measured: binding

B1: Mus musculus RAD51D full length (protein, UniProt O55230 1-329)
chain: MGMLRAGLCPGLTEETVQLLRGRKIKTVADLAAADLEEVAQKCGLSYKALVALRRVLLAQFSAFPLNGADLYEELKTSTAILSTGIGSLDKLLDAGLYTGEVTEIVGGPGSGKTQVCLCVAANVAHSLQQNVLYVDSNGGMTASRLLQLLQARTQDEEKQASALQRIQVVRSFDIFRMLDMLQDLRGTIAQQEATSSGAVKVVIVDSVTAVVAPLLGGQQREGLALMMQLARELKILARDLGVAVVVTNHLTRDWDGRRFKPALGRSWSFVPSTRILLDVTEGAGTLGSSQRTVCLTKSPRQPTGLQEMIDIGTLGTEEQSPELPGKQT
binds: [1] | [2] | [3] | [4] | [5] | [6]

B2: Mus musculus RAD51DΔ7b (deleted for residues 219 through 223) (protein, UniProt O55230)
chain: MGMLRAGLCPGLTEETVQLLRGRKIKTVADLAAADLEEVAQKCGLSYKALVALRRVLLAQFSAFPLNGADLYEELKTSTAILSTGIGSLDKLLDAGLYTGEVTEIVGGPGSGKTQVCLCVAANVAHSLQQNVLYVDSNGGMTASRLLQLLQARTQDEEKQASALQRIQVVRSFDIFRMLDMLQDLRGTIAQQEATSSGAVKVVIVDSVTAVVAPLLGGLALMMQLARELKILARDLGVAVVVTNHLTRDWDGRRFKPALGRSWSFVPSTRILLDVTEGAGTLGSSQRTVCLTKSPRQPTGLQEMIDIGTLGTEEQSPELPGKQT
binds: [1] | [2] | [3] | [4] | [5] | [6]

B3: RAD51D (4–77) deletion construct (domain or fragment, UniProt O75771 4-77)
chain: LRVGLCPGLTEEMIQLLRSHRIKTVVDLVSADLEEVAQKCGLSYKALVALRRVLLAQFSAFPVNGADLYEELKT
binds: [7]
